# Source: the supplement of paper PMC6414424
# Counter-ions that a name gives are not always drawn. ± gives the standard deviation of the averaged measurements. The list shows a part of the results.
# Tested on: APPdp1-6 iPSC-derived neurons
# Test: pThr231Tau/total Tau ratio Z-score vs DMSO vehicle wells; higher = more pThr231Tau relative to total Tau
# Conditions: 5 µM; treatment time 5 days
row,Compound,pThr231Tau/total Tau ratio Z-score
1,Cn1c(=O)c2c(ncn2CC(=O)O)n(C)c1=O [Prestw-1507],-0.36 ± 0.34
2,O=C1O[C@H](CO)[C@@H](O)[C@H](O)[C@H]1O [GLUCONOLACTONE    Therap cat: chelating agent],1.98 ± 1.8
3,CN(C)CC/C=C1\c2ccccc2CSc2ccccc21 [Prestw-488],0.388 ± 0.1
4,CC(=O)NO,0.493 ± 1.3
5,CC(C)(Oc1ccc(Cl)cc1)C(=O)O [Prestw-783],0.944 ± 0.41
6,CN1CCCN=C1COC(=O)C(O)(c1ccccc1)C1CCCCC1 (stereo not given),-0.475 ± 0.68
7,Oc1ccc(Cl)c2cccnc12 [CLOXYQUIN    Therap cat:  Antibacterial; antifungal],-0.512 ± 0.38
8,CC(C)(Sc1cc(C(C)(C)C)c(O)c(C(C)(C)C)c1)Sc1cc(C(C)(C)C)c(O)c(C(C)(C)C)c1 [Prestw-384],0.0524 ± 0.75
9,CN1CCC(=C2c3ccccc3CC(=O)c3sccc32)CC1 [Prestw-371],-0.93 ± 0.58
10,CN1CCCC(CC2c3ccccc3Sc3ccccc32)C1 (stereo not given) [Prestw-491],-1.65 ± 0.077
11,COc1ccccc1N1CCN(CC(O)COc2cccc3ccccc23)CC1 (stereo not given) [Prestw-975],0.171 ± 1.5
12,CCN1C(=O)NC(c2ccccc2)C1=O (stereo not given) [Prestw-696],0.93 ± 0.19
13,CCCN(CCC)C(=O)C(CCC(=O)O)NC(=O)c1ccccc1 (stereo not given) [Prestw-240],-0.374 ± 1.5
14,COc1ccc2c(c1)N(C[C@H](C)CN(C)C)c1ccccc1S2 [Prestw-797],-0.74 ± 0.8
15,N#CC(c1ccc(Cl)cc1)c1c(Cl)cc(-n2ncc(=O)[nH]c2=O)cc1Cl (stereo not given) [Prestw-1394],-0.711 ± 0.18
16,COc1cc(OC)c(C(=O)CCCN2CCCC2)c(OC)c1 [Prestw-426],-0.723 ± 0.51
17,CN(C)c1ccc(O)c2c1C[C@H]1C[C@H]3[C@H](N(C)C)C(=O)C(C(N)=O)=C(O)[C@@]3(O)C(=O)C1=C2O [Prestw-315],-0.598 ± 0.094
18,CN1CCc2cccc3c2[C@H]1Cc1ccc(O)c(O)c1-3 [Prestw-101],0.322 ± 0.11
19,CCC(Cc1c(I)cc(I)c(N)c1I)C(=O)O (stereo not given) [Prestw-1052],1.84 ± 1.8
20,CCC(NC(C)C)C(O)c1ccc(O)c(O)c1 (stereo not given) [Prestw-749],1.13 ± 0.83
21,C[C@]12CC[C@@H]3c4ccc(O)cc4CC[C@H]3[C@@H]1CC[C@@H]2OC(=O)CCC1CCCC1 [ESTRADIOL CYPIONATE    Therap cat:  Estrogen],0.192 ± 0.72
22,C[C@@H]1[C@H](O)[C@@H](C)/C=C/C=C/C=C/C=C/C=C/C=C/C=C/[C@H](O[C@@H]2O[C@H](C)[C@@H](O)[C@H](N)[C@@H]2O)C[C@@H]2O[C@](O)(C[C@@H](O)C[C@@H](O)[C@H](O)CC[C@@H](O)C[C@@H](O)CC(=O)O[C@H]1C)C[C@H](O)[C@H]2C(=O)O [Prestw-410],1.77 ± 0.058
23,CO[C@@]1(NC(=O)CSCC#N)C(=O)N2C(C(=O)O)=C(CSc3nnnn3C)CS[C@@H]21 [Prestw-700],0.311 ± 0.53
24,CCOC(=O)C(C)(C)Oc1ccc(Cl)cc1 [Prestw-1383],-0.322 ± 0.2
25,CC(=O)N(O)CCCCCNC(=O)CCC(=O)N(O)CCCCCNC(=O)CCC(=O)N(O)CCCCCN [Prestw-725],2.51 ± 3.6

row,Compound,pThr231Tau/total Tau ratio Z-score
1,CCN[C@H]1C[C@H](C)S(=O)(=O)c2sc(S(N)(=O)=O)cc21 [Prestw-1116],-0.311 ± 0.41
2,O=C1Cc2cc(CCN3CCN(c4nsc5ccccc45)CC3)c(Cl)cc2N1 [Prestw-1188],0.0759 ± 2
3,O=c1cc(-c2ccc(O)c(O)c2)oc2cc(O)cc(O)c12 [Prestw-870],-0.332 ± 0.71
4,CC(C)(C(=O)c1cccnc1)c1cccnc1 [Prestw-904],-2.07 ± 2
5,Cc1cc(=O)n(-c2ccccc2)n1C [Prestw-29],0.251 ± 0.14
6,Clc1ccc(COC(Cn2ccnc2)c2ccc(Cl)cc2Cl)c(Cl)c1 (stereo not given) [Prestw-67],0.1 ± 0.83
7,NC12CC3CC(CC(C3)C1)C2 [Prestw-407],0.026 ± 1.6
8,Cc1ccc(-c2ncc(Cl)cc2-c2ccc(S(C)(=O)=O)cc2)cn1 [Prestw-1408],-0.876 ± 0.48
9,CC1CCc2c(N3CCC(O)CC3)c(F)cc3c(=O)c(C(=O)O)cn1c23 (stereo not given) [Prestw-1120],-0.191 ± 0.53
10,C[C@@H]1NC(=O)NC1=O [Prestw-860],0.255 ± 0.45
11,CN1CCN(C2=Nc3cc(Cl)ccc3Nc3ccccc32)CC1 [Prestw-350],-1.72 ± 0.85
12,COc1cc(C(=O)NS(=O)(=O)c2ccccc2C)ccc1Cc1cn(C)c2ccc(NC(=O)OC3CCCC3)cc12 [Prestw-1364],-0.175 ± 1.1
13,Cc1cc(C2CCCCC2)n(O)c(=O)c1 [Prestw-541],-2.16 ± 0.61
14,NS(=O)(=O)c1cc(C(=O)O)c(NCc2ccco2)cc1Cl [Prestw-341],-0.00641 ± 0.17
15,O=C(O)c1cc(=O)c2ccccc2o1 [CHROMOCARB    Therap cat:  vascular protectant],1.33 ± 2.7
16,COc1cc([S+](C)[O-])ccc1-c1nc2ncccc2[nH]1 (stereo not given) [Prestw-641],-0.197 ± 0.78
17,CCOC(=O)[C@H](CCc1ccccc1)N[C@@H](C)C(=O)N1[C@H](C(=O)O)C[C@@H]2CCC[C@@H]21 [Prestw-1107],-1.01 ± 1.9
18,CCOc1ccc2c(c1)C(C)=CC(C)(C)N2 [Prestw-765],-0.857 ± 1.4
19,NC(=O)c1ncn([C@@H]2O[C@H](CO)[C@@H](O)[C@H]2O)n1 [Prestw-993],0.555
20,CC(C)COCC(CN(Cc1ccccc1)c1ccccc1)N1CCCC1 (stereo not given) [Prestw-368],-2.95 ± 1.2
21,CN[C@H](CC(C)C)C(=O)N[C@H]1C(=O)N[C@@H](CC(N)=O)C(=O)N[C@H]2C(=O)N[C@H]3C(=O)N[C@H](C(=O)N[C@H](C(=O)O)c4cc(O)cc(O)c4-c4cc3ccc4O)[C@H](O)c3ccc(c(Cl)c3)Oc3cc2cc(c3O[C@@H]2O[C@H](CO)[C@@H](O)[C@H](O)[C@H]2O[C@H]2C[C@](C)(N)[C@H](O)[C@H](C)O2)Oc2ccc(cc2Cl)[C@H]1O [Prestw-497],-0.485 ± 0.56
22,CN[C@H](CC(C)C)C(=O)N[C@H]1C(=O)N[C@@H](CC(N)=O)C(=O)N[C@H]2C(=O)N[C@H]3C(=O)N[C@H](C(=O)N[C@H](C(=O)O)c4cc(O)cc(O)c4-c4cc3ccc4O)[C@H](O)c3ccc(c(Cl)c3)Oc3cc2cc(c3O[C@@H]2O[C@H](CO)[C@@H](O)[C@H](O)[C@H]2O[C@H]2C[C@](C)(N)[C@H](O)[C@H](C)O2)Oc2ccc(cc2Cl)[C@H]1O,1 ± 1.8
23,CNS(=O)(=O)Cc1ccc2[nH]cc(CCN(C)C)c2c1 [Prestw-1346],-0.877 ± 1.3
24,CC[C@H]1OC(=O)[C@H](C)[C@@H](O[C@H]2C[C@@](C)(OC)[C@@H](O)[C@H](C)O2)[C@H](C)[C@@H](O[C@@H]2O[C@H](C)C[C@H](N(C)C)[C@H]2O)[C@](C)(OC)C[C@@H](C)C(=O)[C@H](C)[C@@H](O)[C@]1(C)O [Prestw-1378],-0.0801 ± 0.82
25,CCOc1ccccc1OCC1CNCCO1 (stereo not given) [Prestw-1361],-0.844 ± 2

# Looked up one by one from the entries so far (6):
row,Compound,pThr231Tau/total Tau ratio Z-score
2,O=C1O[C@H](CO)[C@@H](O)[C@H](O)[C@H]1O [GLUCONOLACTONE    Therap cat: chelating agent],1.98 ± 1.8
24,CC[C@H]1OC(=O)[C@H](C)[C@@H](O[C@H]2C[C@@](C)(OC)[C@@H](O)[C@H](C)O2)[C@H](C)[C@@H](O[C@@H]2O[C@H](C)C[C@H](N(C)C)[C@H]2O)[C@](C)(OC)C[C@@H](C)C(=O)[C@H](C)[C@@H](O)[C@]1(C)O [Prestw-1378],-0.0801 ± 0.82
6,CN1CCCN=C1COC(=O)C(O)(c1ccccc1)C1CCCCC1 (stereo not given),-0.475 ± 0.68
4,CC(C)(C(=O)c1cccnc1)c1cccnc1 [Prestw-904],-2.07 ± 2
5,Cc1cc(=O)n(-c2ccccc2)n1C [Prestw-29],0.251 ± 0.14
4,CC(=O)NO,0.493 ± 1.3

# (listing goes on)

row,Compound,pThr231Tau/total Tau ratio Z-score
1,"O=C(Nc1ccc(C(=O)O)c(O)c1)c1ccccc1 [BENZOYLPAS, antibacterial, tuberculostatic]",0.816 ± 1.1
2,CCCCOC(=O)c1ccc(N)cc1 [Prestw-761],0.187 ± 0.083
3,CN(C)/N=N/c1nc[nH]c1C(N)=O [Prestw-574],2.11 ± 3.8
4,O=C1NCN(c2ccccc2)C12CCN(CCCC(c1ccc(F)cc1)c1ccc(F)cc1)CC2 [Prestw-906],-2.87 ± 0.3
5,CC(C)(C)C(=O)OCOC(=O)[C@@H]1N2C(=O)[C@@H](NC(=O)[C@H](N)c3ccccc3)[C@H]2SC1(C)C [Prestw-1009],-0.38 ± 0.056
6,CCCCC(CC)CN1CN(CC(CC)CCCC)CC(C)(N)C1 (stereo not given) [Prestw-551],0.633 ± 2
7,COc1cc2c(cc1OC)C(=O)C(CC1CCN(Cc3ccccc3)CC1)C2 (stereo not given),0.17 ± 0.84
8,NC(N)=NCc1cccc(I)c1 [Prestw-490],0.221 ± 0.2
9,CC1CCC(C(C)C)C(O)C1 (stereo not given) [Menthol],0.796 ± 1.8
10,"CNCC[C@H](Oc1cccc2ccccc12)c1cccs1 [DULOXETINE HYDROCHLORIDE, antidepressant]",-1.87 ± 0.76
11,O=C(CCCN1CCC(O)(c2ccc(Br)cc2)CC1)c1ccc(F)cc1 [Prestw-509],-0.285 ± 0.42
12,CC(=O)c1ccc2c(c1)N(CCCN1CCC(CCO)CC1)c1ccccc1S2 [Prestw-1048],-1.94 ± 1
13,COc1cc(Cc2cnc(N)nc2N)cc(OC)c1OC [Prestw-208],0.645 ± 1.5
14,COc1cc(-c2ccc(N=Nc3ccc4c(S(=O)(=O)O)cc(S(=O)(=O)O)c(N)c4c3O)c(OC)c2)ccc1N=Nc1ccc2c(S(=O)(=O)O)cc(S(=O)(=O)O)c(N)c2c1O [Prestw-425],-0.421 ± 0.08
15,CCN(CC)CCOC(=O)C(c1ccccc1)C1CCCCC1 (stereo not given) [Prestw-789],-0.591 ± 0.9
16,"COCC1=C(C(=O)OC(C)OC(=O)OC(C)C)N2C(=O)[C@@H](NC(=O)/C(=N\OC)c3csc(N)n3)[C@H]2SC1 (stereo not given in full) [CEFPODOXIME PROXETIL, antibacterial]",1.35 ± 1.7
17,O=C(Nc1ccccc1)c1ccccc1O,1.07 ± 0.49
18,"CO/N=C(\C(=O)N[C@@H]1C(=O)N2C(C(=O)O)=C(CSc3nc(=O)c(=O)[nH]n3C)CS[C@H]12)c1csc(N)n1 [CEFTRIAXONE SODIUM TRIHYDRATE, antibacterial]",1.45 ± 0.74
19,Cn1c(=O)c2[nH]cnc2n(C)c1=O [Prestw-873],0.885 ± 0.19
20,Cn1c(=O)c2[nH]cnc2n(C)c1=O [Prestw-820],0.192 ± 0.044
21,CS(=O)(=O)c1ccc(C2=C(c3ccccc3)C(=O)OC2)cc1 [Prestw-1336],-0.298 ± 2.4
22,Cc1[nH]c(=O)c(C#N)cc1-c1ccncc1 [Prestw-1065],-0.373 ± 0.5
23,CN(C)CCC=C1c2ccccc2CCc2ccccc21 [Prestw-74],-0.482 ± 0.14
24,N=C(N)N [Guanidine],-0.0821 ± 0.23
25,C[C@]12CC[C@H]3C(=CCc4cc(O)ccc43)[C@@H]1CCC2=O [Prestw-850],-2.03 ± 0.58
